Measurements: the supplement of paper PMC11732987, “Enantioselective OTUD7B fragment discovery through chemoproteomics screening and high-throughput optimisation” (Communications Chemistry, 2025)
The other results are listed elsewhere or left out. The data scatter; read single values as rough.

The chains behind the UniProt entries cited, without tags or fusion partners. Where a name states a change or a piece, a line headed by the entry shows the natural chain unless it says otherwise.
UniProt Q5UIP0: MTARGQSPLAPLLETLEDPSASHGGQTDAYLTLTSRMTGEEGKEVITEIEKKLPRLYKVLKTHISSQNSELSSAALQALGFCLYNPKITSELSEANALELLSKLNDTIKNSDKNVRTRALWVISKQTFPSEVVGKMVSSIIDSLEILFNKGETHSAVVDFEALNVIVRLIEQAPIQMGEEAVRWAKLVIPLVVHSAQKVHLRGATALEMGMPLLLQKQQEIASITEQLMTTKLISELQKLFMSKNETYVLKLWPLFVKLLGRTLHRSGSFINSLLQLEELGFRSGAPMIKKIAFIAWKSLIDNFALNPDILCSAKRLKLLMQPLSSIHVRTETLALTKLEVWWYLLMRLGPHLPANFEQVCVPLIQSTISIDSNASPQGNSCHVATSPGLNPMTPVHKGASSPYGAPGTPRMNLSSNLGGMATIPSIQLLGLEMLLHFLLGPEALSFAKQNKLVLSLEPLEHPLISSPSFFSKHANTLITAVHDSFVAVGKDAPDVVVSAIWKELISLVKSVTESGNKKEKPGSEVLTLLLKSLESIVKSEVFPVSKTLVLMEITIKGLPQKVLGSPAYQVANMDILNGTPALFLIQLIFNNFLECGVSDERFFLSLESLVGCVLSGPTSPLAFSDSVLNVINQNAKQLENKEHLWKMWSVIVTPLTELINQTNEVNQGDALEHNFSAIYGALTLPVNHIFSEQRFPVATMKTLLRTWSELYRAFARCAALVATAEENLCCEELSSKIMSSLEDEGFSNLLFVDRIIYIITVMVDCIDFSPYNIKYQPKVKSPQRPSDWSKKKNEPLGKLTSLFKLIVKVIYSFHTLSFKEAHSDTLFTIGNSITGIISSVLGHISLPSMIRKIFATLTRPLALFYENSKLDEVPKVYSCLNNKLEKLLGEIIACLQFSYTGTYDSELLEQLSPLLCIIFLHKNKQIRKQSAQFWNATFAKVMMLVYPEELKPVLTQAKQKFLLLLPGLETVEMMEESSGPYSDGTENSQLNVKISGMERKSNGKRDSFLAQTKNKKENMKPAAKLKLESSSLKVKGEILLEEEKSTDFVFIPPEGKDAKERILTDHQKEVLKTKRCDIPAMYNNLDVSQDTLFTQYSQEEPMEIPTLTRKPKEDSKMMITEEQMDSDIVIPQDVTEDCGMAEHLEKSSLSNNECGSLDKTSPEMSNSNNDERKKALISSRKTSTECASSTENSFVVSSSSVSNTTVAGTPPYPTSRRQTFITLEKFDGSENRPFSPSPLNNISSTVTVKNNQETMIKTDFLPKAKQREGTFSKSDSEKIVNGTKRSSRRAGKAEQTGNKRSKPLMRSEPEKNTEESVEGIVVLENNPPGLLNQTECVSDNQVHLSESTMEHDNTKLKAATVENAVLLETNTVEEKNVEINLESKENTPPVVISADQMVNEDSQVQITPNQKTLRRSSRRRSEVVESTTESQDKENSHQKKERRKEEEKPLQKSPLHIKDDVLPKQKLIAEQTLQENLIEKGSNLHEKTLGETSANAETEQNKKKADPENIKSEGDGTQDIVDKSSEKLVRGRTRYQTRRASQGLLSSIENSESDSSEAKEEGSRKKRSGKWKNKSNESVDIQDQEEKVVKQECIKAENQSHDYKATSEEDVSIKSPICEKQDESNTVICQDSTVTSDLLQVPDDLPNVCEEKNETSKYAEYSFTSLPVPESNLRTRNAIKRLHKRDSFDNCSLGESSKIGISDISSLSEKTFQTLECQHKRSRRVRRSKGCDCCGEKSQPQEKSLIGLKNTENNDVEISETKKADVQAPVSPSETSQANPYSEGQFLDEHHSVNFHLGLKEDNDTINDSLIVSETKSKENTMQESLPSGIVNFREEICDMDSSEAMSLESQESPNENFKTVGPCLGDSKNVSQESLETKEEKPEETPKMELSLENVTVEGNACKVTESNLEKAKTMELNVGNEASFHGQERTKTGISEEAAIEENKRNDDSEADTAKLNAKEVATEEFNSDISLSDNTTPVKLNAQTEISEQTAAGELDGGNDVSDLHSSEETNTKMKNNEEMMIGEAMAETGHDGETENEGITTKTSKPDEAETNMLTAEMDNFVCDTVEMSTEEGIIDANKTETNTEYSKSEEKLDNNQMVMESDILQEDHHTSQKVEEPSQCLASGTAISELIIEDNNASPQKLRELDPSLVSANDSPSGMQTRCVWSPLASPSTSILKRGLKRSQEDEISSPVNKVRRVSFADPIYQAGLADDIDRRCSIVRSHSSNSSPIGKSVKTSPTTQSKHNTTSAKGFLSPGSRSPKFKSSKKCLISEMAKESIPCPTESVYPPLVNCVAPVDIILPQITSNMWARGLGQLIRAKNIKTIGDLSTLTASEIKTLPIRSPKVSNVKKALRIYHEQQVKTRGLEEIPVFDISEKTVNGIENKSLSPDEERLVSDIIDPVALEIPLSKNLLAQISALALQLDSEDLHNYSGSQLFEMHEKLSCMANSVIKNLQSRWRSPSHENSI
UniProt Q9P258, whole entry, looked up: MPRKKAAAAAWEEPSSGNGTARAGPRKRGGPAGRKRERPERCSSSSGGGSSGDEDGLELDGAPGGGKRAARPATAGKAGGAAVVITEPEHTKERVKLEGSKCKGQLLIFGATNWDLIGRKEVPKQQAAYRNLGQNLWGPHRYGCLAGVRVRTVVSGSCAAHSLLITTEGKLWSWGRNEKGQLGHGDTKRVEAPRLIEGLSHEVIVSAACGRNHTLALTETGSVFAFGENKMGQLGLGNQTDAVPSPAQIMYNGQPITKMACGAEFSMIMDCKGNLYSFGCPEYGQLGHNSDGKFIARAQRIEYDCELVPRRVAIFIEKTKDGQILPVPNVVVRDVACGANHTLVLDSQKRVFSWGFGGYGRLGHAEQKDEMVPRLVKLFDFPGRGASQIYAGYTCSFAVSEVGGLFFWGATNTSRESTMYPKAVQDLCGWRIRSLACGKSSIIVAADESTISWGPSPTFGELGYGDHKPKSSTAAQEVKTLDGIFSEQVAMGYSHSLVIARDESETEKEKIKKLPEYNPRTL
UniProt Q8IXT5: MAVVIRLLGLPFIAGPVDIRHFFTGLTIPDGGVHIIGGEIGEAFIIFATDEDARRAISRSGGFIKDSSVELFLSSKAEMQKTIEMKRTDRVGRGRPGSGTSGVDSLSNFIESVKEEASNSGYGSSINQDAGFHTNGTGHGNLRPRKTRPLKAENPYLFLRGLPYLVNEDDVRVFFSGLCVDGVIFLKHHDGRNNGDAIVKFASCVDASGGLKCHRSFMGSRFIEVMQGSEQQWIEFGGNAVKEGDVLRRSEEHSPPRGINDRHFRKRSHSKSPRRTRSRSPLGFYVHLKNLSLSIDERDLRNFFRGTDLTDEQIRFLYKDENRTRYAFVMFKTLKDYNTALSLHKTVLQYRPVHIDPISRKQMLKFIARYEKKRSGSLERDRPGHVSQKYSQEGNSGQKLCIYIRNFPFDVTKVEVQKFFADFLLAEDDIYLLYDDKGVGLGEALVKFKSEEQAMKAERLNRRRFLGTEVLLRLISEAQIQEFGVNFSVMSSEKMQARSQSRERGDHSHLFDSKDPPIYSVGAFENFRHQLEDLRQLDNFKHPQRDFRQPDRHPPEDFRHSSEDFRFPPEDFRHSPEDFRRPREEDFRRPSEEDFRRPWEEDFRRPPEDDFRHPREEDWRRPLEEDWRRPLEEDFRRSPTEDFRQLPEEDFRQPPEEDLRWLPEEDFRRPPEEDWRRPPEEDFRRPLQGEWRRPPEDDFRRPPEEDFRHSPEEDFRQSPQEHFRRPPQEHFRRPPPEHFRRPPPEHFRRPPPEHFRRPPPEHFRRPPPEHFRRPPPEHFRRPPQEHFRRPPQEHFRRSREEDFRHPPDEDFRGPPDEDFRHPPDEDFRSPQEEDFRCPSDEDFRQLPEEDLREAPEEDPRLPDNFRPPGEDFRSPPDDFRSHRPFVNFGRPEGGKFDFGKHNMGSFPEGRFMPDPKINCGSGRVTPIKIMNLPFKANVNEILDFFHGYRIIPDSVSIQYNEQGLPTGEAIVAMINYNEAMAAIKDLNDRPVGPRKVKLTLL
UniProt P18754: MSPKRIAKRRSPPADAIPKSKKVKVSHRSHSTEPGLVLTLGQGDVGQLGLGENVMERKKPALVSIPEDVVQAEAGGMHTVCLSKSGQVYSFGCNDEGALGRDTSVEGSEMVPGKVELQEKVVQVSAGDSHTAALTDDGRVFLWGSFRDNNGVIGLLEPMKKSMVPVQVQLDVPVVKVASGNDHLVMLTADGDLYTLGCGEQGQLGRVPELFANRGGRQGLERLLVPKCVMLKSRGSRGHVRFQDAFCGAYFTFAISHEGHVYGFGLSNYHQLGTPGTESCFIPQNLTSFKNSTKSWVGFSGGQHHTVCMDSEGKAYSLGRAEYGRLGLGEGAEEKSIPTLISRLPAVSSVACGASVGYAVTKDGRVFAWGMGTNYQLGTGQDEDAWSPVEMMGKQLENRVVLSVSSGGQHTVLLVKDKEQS
UniProt Q9HCM1: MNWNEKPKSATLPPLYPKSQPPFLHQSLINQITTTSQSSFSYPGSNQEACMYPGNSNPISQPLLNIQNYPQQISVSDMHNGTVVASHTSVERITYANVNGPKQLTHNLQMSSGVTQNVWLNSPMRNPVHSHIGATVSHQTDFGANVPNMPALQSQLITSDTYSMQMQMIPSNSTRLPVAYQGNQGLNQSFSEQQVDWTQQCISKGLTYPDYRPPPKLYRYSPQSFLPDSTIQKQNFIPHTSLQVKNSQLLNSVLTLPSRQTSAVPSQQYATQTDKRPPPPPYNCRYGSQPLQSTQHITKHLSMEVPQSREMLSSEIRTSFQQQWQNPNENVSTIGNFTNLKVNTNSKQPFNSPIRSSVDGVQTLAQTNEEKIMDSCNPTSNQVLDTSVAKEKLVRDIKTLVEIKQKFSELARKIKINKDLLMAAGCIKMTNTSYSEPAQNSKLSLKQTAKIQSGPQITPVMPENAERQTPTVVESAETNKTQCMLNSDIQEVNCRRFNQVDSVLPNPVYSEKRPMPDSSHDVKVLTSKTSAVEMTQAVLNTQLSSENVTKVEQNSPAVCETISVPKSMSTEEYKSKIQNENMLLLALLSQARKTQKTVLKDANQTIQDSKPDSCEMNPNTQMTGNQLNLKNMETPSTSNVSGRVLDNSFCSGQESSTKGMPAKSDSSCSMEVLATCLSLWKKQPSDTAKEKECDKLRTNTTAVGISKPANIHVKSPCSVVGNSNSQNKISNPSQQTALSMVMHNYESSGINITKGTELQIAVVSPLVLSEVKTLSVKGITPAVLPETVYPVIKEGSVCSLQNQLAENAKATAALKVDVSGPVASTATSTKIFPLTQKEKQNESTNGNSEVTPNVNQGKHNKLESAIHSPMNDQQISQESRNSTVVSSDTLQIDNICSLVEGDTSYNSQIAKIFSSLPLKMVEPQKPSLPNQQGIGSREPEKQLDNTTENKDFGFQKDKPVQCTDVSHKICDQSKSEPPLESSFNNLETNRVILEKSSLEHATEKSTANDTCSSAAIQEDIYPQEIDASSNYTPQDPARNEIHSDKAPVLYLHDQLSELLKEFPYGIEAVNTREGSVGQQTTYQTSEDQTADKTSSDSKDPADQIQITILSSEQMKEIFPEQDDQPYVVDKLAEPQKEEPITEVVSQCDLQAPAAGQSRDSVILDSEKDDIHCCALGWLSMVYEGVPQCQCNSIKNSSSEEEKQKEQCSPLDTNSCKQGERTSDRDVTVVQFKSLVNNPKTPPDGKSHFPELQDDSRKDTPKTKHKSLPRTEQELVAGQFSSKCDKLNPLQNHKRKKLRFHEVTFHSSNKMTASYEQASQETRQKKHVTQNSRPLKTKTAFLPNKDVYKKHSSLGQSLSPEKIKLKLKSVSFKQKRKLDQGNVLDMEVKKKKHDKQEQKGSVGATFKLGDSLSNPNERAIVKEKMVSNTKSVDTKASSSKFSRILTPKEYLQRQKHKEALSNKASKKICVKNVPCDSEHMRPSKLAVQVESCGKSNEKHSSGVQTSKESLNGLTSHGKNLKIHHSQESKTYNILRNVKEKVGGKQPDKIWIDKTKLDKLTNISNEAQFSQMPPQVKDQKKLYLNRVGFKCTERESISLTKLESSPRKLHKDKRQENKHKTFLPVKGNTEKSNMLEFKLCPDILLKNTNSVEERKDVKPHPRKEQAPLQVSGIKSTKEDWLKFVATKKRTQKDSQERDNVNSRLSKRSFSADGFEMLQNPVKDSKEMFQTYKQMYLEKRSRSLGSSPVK
UniProt Q9BWF3: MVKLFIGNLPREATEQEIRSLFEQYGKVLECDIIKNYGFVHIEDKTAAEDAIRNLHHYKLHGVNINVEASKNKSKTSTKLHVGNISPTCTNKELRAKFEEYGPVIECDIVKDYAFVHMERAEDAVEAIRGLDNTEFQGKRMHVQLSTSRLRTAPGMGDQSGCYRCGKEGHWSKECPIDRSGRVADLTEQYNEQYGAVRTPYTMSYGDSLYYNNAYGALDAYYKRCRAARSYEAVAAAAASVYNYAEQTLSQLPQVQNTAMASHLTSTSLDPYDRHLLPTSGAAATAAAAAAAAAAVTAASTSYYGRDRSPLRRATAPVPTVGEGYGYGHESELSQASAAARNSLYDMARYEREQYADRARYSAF

Legend:
[1] = compound: ClCC(=O)N[C@@H]1CCCc2ccccc12; assay: log2 mean competition ratio of IA-DTB cysteine labelling (DMSO/compound) (log2 ratio); higher = stronger cysteine engagement by compound; settings: treatment time: 4 h, cell line lysate: HEK293T
Protocol: (§1)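 IA-DTB competitive cysteine chemoproteomics in HEK293T RIPA lysate. Lysates were treated with compound 29 or 30 at 50 or 200 µM for 4 h, then IA-DTB (500 µM, 1 h), trypsin-digested, NeutrAvidin-enriched and analysed by diaPASEF. Competition ratio = intensity DMSO / intensity compound (n=4 treated, n=64 DMSO); binding: mean log2 CR ≥ 1 and p ≤ 0.05 plus QC filters. Target is the cysteine site.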

[2] = compound: ClCC(=O)N[C@H]1CCCc2ccccc12; assay: as above; settings: treatment time: 4 h, cell line lysate: HEK293T
Protocol: as §1

## REXO4 C248 (UniProt Q9GZR2)
[1]; 50 µM
  log2 mean competition ratio: 0.0898
[1]; 200 µM
  log2 mean competition ratio: -0.0367
[2]; 50 µM
  log2 mean competition ratio: -0.0926
[2]; 200 µM
  log2 mean competition ratio: -0.0426

## RIF1 C1155 (UniProt Q5UIP0)
[1]; 50 µM
  log2 mean competition ratio: -0.0175
[1]; 200 µM
  log2 mean competition ratio: 0.0316
[2]; 50 µM
  log2 mean competition ratio: -0.126
[2]; 200 µM
  log2 mean competition ratio: 0.108

## RMDN3 C128 (UniProt Q96TC7)
[1]; 50 µM
  log2 mean competition ratio: 0.031
[1]; 200 µM
  log2 mean competition ratio: -0.00177
[2]; 50 µM
  log2 mean competition ratio: -0.162
[2]; 200 µM
  log2 mean competition ratio: 0.0392

## RAP1GAP C644 (UniProt P47736)
[1]; 50 µM
  log2 mean competition ratio: -0.173
[1]; 200 µM
  log2 mean competition ratio: 0.153
[2]; 50 µM
  log2 mean competition ratio: -0.0108
[2]; 200 µM
  log2 mean competition ratio: 0.204

## RAPGEF6 C93 (UniProt Q8TEU7)
[1]; 50 µM
  log2 mean competition ratio: -0.0954
[1]; 200 µM
  log2 mean competition ratio: 0.346
[2]; 50 µM
  log2 mean competition ratio: 0.271
[2]; 200 µM
  log2 mean competition ratio: 0.0398

## RIMOC1 C179
[1]; 50 µM
  log2 mean competition ratio: -0.114
[1]; 200 µM
  log2 mean competition ratio: 0.302
[2]; 50 µM
  log2 mean competition ratio: -0.028
[2]; 200 µM
  log2 mean competition ratio: 0.182

## RAP1GDS1 C144 (UniProt P52306)
[1]; 50 µM
  log2 mean competition ratio: -0.174
[1]; 200 µM
  log2 mean competition ratio: -0.196
[2]; 50 µM
  log2 mean competition ratio: -0.0141
[2]; 200 µM
  log2 mean competition ratio: -0.0666

## RCC2 C144 (UniProt Q9P258)
[1]; 50 µM
  log2 mean competition ratio: 0.318
[1]; 200 µM
  log2 mean competition ratio: 0.0871
[2]; 50 µM
  log2 mean competition ratio: 0.148
[2]; 200 µM
  log2 mean competition ratio: -0.0242

## RBBP7 C97
[1]; 50 µM
  log2 mean competition ratio: -0.221
[1]; 200 µM
  log2 mean competition ratio: -0.259
[2]; 50 µM
  log2 mean competition ratio: -0.204
[2]; 200 µM
  log2 mean competition ratio: -0.15

## RBFA C136 (UniProt Q8N0V3)
[1]; 50 µM
  log2 mean competition ratio: -0.0342
[1]; 200 µM
  log2 mean competition ratio: -0.0395
[2]; 50 µM
  log2 mean competition ratio: 0.167
[2]; 200 µM
  log2 mean competition ratio: 0.0415

## RIPK1 C656 (UniProt Q13546)
[1]; 50 µM
  log2 mean competition ratio: 0.142
[1]; 200 µM
  log2 mean competition ratio: 0.15
[2]; 50 µM
  log2 mean competition ratio: 0.187
[2]; 200 µM
  log2 mean competition ratio: -0.185

## RIMS4 C164
[1]; 50 µM
  log2 mean competition ratio: 0.351
[1]; 200 µM
  log2 mean competition ratio: -0.214
[2]; 50 µM
  log2 mean competition ratio: -0.431
[2]; 200 µM
  log2 mean competition ratio: -0.0635

## RBM12B C919 (UniProt Q8IXT5)
[1]; 50 µM
  log2 mean competition ratio: -0.045
[1]; 200 µM
  log2 mean competition ratio: 0.0608
[2]; 50 µM
  log2 mean competition ratio: -0.0424
[2]; 200 µM
  log2 mean competition ratio: 0.138

## RCC1 C93 (UniProt P18754)
[1]; 50 µM
  log2 mean competition ratio: -0.215
[1]; 200 µM
  log2 mean competition ratio: -0.142
[2]; 50 µM
  log2 mean competition ratio: 0.0678
[2]; 200 µM
  log2 mean competition ratio: -0.038

## RESF1 C962 (UniProt Q9HCM1)
[1]; 50 µM
  log2 mean competition ratio: 0.394
[1]; 200 µM
  log2 mean competition ratio: -0.0336
[2]; 50 µM
  log2 mean competition ratio: 0.0681
[2]; 200 µM
  log2 mean competition ratio: 0.168

## RBM4 C89 (UniProt Q9BWF3)
[1]; 50 µM
  log2 mean competition ratio: -0.0444
[1]; 200 µM
  log2 mean competition ratio: 0.00642
[2]; 50 µM
  log2 mean competition ratio: 0.164
[2]; 200 µM
  log2 mean competition ratio: -0.0678

## RALGAPA2 C169 (UniProt Q2PPJ7)
[1]; 50 µM
  log2 mean competition ratio: -0.125
[1]; 200 µM
  log2 mean competition ratio: 0.106
[2]; 50 µM
  log2 mean competition ratio: -0.0183
[2]; 200 µM
  log2 mean competition ratio: 0.139
